# Experimental data taken from PMC11500381.
# Protein sequences, listed by entry. Tags and fused reporters are not part of them.
# UniProt Q96SW2: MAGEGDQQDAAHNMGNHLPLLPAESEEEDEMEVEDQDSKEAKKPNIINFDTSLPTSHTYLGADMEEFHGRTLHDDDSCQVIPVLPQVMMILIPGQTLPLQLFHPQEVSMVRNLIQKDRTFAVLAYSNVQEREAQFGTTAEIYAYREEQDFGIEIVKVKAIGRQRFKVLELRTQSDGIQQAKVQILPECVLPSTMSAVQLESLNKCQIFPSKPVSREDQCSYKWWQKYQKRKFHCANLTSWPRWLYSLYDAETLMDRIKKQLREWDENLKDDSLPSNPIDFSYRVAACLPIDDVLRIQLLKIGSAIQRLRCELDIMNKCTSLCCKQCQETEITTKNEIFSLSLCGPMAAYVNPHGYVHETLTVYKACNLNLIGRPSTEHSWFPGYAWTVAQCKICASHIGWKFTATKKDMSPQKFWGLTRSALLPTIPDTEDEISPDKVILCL
# UniProt Q8C7D2: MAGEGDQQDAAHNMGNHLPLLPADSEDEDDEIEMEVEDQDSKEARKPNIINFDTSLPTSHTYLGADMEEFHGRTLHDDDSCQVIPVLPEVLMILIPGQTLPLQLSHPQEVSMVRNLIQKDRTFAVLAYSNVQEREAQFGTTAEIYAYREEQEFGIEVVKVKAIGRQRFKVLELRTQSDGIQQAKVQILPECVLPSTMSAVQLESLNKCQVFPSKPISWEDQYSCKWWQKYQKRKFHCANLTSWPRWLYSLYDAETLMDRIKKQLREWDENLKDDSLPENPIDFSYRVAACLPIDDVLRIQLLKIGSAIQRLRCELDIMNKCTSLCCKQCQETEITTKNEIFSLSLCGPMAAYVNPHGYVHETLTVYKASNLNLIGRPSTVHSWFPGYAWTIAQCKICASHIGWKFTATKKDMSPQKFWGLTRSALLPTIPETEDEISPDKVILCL
# UniProt P25685: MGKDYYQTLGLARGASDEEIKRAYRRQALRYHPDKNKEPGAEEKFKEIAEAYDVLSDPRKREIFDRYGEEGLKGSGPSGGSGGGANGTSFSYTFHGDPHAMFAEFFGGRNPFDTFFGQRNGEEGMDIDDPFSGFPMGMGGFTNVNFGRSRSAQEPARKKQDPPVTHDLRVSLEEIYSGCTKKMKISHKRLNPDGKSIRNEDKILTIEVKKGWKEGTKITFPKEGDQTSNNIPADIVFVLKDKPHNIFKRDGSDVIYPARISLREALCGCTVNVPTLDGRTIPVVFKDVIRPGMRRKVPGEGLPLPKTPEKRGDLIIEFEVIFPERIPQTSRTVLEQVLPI
# UniProt O75190: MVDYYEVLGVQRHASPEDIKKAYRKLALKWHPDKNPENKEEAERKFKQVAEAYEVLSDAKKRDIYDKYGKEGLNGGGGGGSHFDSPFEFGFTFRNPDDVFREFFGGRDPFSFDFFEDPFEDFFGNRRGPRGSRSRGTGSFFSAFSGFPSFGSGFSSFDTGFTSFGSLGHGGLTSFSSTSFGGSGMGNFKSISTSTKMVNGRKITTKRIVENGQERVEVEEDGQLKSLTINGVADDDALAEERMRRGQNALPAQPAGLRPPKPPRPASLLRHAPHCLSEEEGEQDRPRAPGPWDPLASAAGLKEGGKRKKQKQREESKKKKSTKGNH
# UniProt Q9QYJ3: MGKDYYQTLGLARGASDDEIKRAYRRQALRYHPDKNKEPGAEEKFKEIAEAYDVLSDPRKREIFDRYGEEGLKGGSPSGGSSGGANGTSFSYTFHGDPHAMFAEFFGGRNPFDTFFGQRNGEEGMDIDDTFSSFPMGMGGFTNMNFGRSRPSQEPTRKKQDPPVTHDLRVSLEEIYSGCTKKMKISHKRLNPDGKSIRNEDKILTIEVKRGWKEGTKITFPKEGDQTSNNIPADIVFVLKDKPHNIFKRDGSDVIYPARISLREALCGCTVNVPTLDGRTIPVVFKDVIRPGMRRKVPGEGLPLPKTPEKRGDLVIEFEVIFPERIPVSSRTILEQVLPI
# No constants are given. Whether binding was seen depends on the method and setting. In cells and extracts the contact can be indirect. Some binding calls cover weakened binding; strength is not graded here.
# Legend:
# [1] = biological target: CRBN (construct not shown; SH-SY5Y cells) (UniProt Q96SW2); assay: co-IP; called 'CRBN pull-down assay'; SH-SY5Y cells with DJ6 knocked down (Supplementary Fig. 2c)
# [2] = biological target: CRBN (construct not shown; SH-SY5Y cells) (UniProt Q96SW2); assay: co-IP; CRBN with DJ6 in the presence of Ac-LLRH-NH2 or scrambled Ac-RHLL-NH2; CoIP and western blot (Supplementary Fig. 8a)
# [3] = biological target: CRBN (construct not shown; SH-SY5Y cells) (UniProt Q96SW2); assay: co-IP; CRBN with DJ6 (Supplementary Fig. 2a); constructs and antibodies not shown
# FLAG-CRBN = FLAG-CRBN (UniProt Q96SW2); assay: co-IP; SH-SY5Y cells co-transfected with Myc-DJ1 and FLAG-CRBN; lysate incubated with scrambled peptide or Ac-DGRT-NH2; CoIP with α-FLAG antibody
# HA-CRBN (Cereblon) = HA-CRBN (Cereblon) (UniProt Q8C7D2); assay: co-IP; SH-SY5Y cells transiently co-transfected with HA-CRBN and Myc-DJ1; lysate immunoprecipitated with IgG control or α-HA antibody; protein G Sepharose; n = 5
# [4] = biological target: endogenous CRBN of mouse brain (mouse (endogenous in C57BL/6 brain)) (UniProt Q8C7D2); assay: co-IP; whole-brain lysates of C57BL/6 mice; endogenous CRBN pulled down with α-CRBN antibody; immunoblot
substance,measurement,setting,value
DJ1 (DNAJB1; construct not shown; SH-SY5Y cells) (from UniProt P25685 1-340),binding,[1],binds
DJ6 (DNAJB6; construct not shown) (from UniProt O75190 1-326),binding,[2],binds
same,binding,[3],binds
Myc-DJ1 (DNAJB1) (from UniProt P25685 1-340),binding,FLAG-CRBN,binds
same,binding,HA-CRBN (Cereblon),binds
endogenous DJ1 (DNAJB1) of mouse brain (from UniProt Q9QYJ3 1-340),binding,[4],binds
